Source: PubChem BioAssay AID445 (National Center for Advancing Translational Sciences (NCATS), 2006)
This is one part of the list. These are further read-outs of the screen, such as a control signal, another cell line or another target. No call is given for them. Compounds called inactive in the main read-out are mostly missing here. The note in brackets gives the kind of curve behind each potency; many fits are weak.

Experiment: IkB Signaling
Details: ABC-DLBCL IkBa-CBG/CBR dual luciferase ratio (green luciferase fused to IkBa over red control in OCI-Ly3 lymphoma cells), 4 h
Summary of the method: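 In this assay, an IκBα–CBG68 fusion accumulates when IKK-driven degradation is blocked; native CBR normalizes for cell number. OCI-Ly3 cells were treated 4 h with compound and doxycycline, then green and red light read after Chroma-Glo addition.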

[1] = measured here: control luc red channel unless noted
[2] = measured here: IkB-luc green channel
[3] = measured here: control luc red channel

CCc1cc2c(cc3c(=O)n(CCCC(=O)NCc4cccc(Br)c4)ncn32)s1
AC50 [1]: 6.31 µM [falling, partial curve]

Cc1cc(Nc2ccc(F)cc2F)nc(-n2nc(C)cc2C)n1
AC50 [1]: 39.8 µM [falling, single point]

CC1CCCN(c2nc3c(c(=O)[nH]c(=O)n3C)n2CCCc2ccccc2)C1 (stereo not given)
AC50 [1]: 15.8 µM [falling, partial curve]

COc1ccc2cc(CCNC(=O)c3ccc4c(c3)OCO4)c(=O)[nH]c2c1
AC50 [1]: 15.8 µM [falling, partial curve]

CNS(=O)(=O)c1cn(CC(=O)N2CCN(c3ccc(C(C)=O)cc3)CC2)cc1S(=O)(=O)NC
AC50 [1]: 39.8 µM [rising, partial curve, poor fit]

CC(=O)N1CCN(c2ccccc2NC(=O)COc2cc(C)ccc2C(C)C)CC1
AC50 [1]: 12.6 µM [falling, partial curve]

O=C(CSc1nc(=O)n(CCN2CCOCC2)c2c1CCC2)Nc1ccc(Cl)c(Cl)c1
AC50 [1]: 3.16 µM [falling, partial curve, poor fit]

Cc1ccc2nc(SCc3nc(-c4ccc(Cl)cc4)no3)[nH]c2c1
AC50 [1]: 31.6 µM [falling, single point]

CC(=O)Nc1ccccc1-c1nc2ccccc2n(CC(=O)Nc2cccc(C)c2C)c1=O
AC50 [1]: 39.8 µM [falling, single point]

CCOC(=O)c1cc(-c2ccccc2)n(CCC(=O)Nc2ccccc2CC)c1C
AC50 [1]: 39.8 µM [rising, partial curve]

Cc1cc(C)cc(N2C(=O)CSC23C(=O)N(Cc2c(F)cccc2Cl)c2ccccc23)c1 (stereo not given)
AC50 [1]: 7.94 µM [falling, partial curve]

Cc1cccc2nc(-c3ccccn3)c(Nc3ccc(F)cc3)n12
AC50 [1]: 31.6 µM [falling, partial curve]

CCCCOc1ccc(CSc2ncn[nH]2)cc1
AC50 [1]: 12.6 µM [falling, partial curve]

CC(=O)c1sc(NC(=O)c2ccccc2F)nc1C
AC50 [1]: 12.6 µM [falling, partial curve]

CC(C)(C)OC(=O)N1CCC(c2c(C(=O)NCCc3ccsc3)cnn2-c2ccc(F)cc2F)CC1
AC50 [1]: 20 µM [falling, partial curve]

CCOC(=O)c1c(Nc2ccc(OCC)cc2)nnc(-c2ccccc2)c1-c1ccccc1
AC50 [1]: 10 µM [falling, partial curve]

CC(C)c1cnc2c(c1SCC(=O)c1ccc(Cl)cc1)c(=O)n(C)c(=O)n2C
AC50 [1]: 31.6 µM [falling, partial curve]

COc1ccc(Cl)cc1NC(=O)CN1CCC(n2nnc3cc(F)ccc32)CC1
AC50 [2]: 25.1 µM [rising, partial curve] | AC50 [3]: 25.1 µM [rising, partial curve]

Cc1cc(-c2ccccc2)nc2cc(C(=O)Nc3ccc(Cl)c(Cl)c3)nn12
AC50 [1]: 3.16 µM [falling, full curve, poor fit]

CCOc1ccc(NCc2cccn2-c2nnc(N3CCC(C(=O)NCCc4ccc(OCC)c(OCC)c4)CC3)s2)cc1
AC50 [1]: 39.8 µM [falling, single point]

COc1ccc(C(=O)N2CC=C(c3ccccc3)CC2)cc1S(=O)(=O)N1CCOCC1
AC50 [1]: 25.1 µM [falling, single point]

CCOC(=O)c1[nH]c2c(c1C)C(=O)CC(c1ccco1)C2 (stereo not given)
AC50 [2]: 0.794 µM [rising, full curve] | AC50 [3]: 0.398 µM [rising, full curve]

COc1ccccc1-c1noc(CCC(=O)Nc2cccc(C(F)(F)F)c2)n1
AC50 [1]: 25.1 µM [falling, partial curve]

Cc1cccc(NC(=O)C(=O)NCC(c2cccnc2)N2CCN(Cc3ccccc3)CC2)c1 (stereo not given)
AC50 [1]: 39.8 µM [falling, single point]

COc1ccc(OC)c(NC(=O)C(Cc2ccccc2)NS(=O)(=O)c2ccc3c(c2)CCC(=O)N3)c1 (stereo not given)
AC50 [1]: 31.6 µM [falling, single point]

CCn1cc2nc(SCc3c(F)cccc3Cl)n(CCc3ccccc3)c(=O)c2n1
AC50 [1]: 25.1 µM [falling, partial curve]

CCN(CC)S(=O)(=O)c1ccc2c(c1)N(CC(=O)Nc1cccc(C(C)=O)c1)C(=O)CO2
AC50 [1]: 10 µM [falling, partial curve]

O=C(Nc1ccc(Br)cc1)Nc1nc2c(s1)CCCCCC2
AC50 [1]: 0.0501 µM [rising, full curve, poor fit]

COc1ccc(Cl)cc1S(=O)(=O)Nc1ccc2c(c1)n(C)c(=O)n2C
AC50 [1]: 20 µM [rising, partial curve] [measured here: IkB-luc green channel]

Cc1cccc(N2CCN(C(=O)c3ccc(N4CCCC4=O)cc3)CC2C)c1 (stereo not given)
AC50 [1]: 12.6 µM [falling, partial curve]

C#CCOc1c(Br)cc(C2C(C(=O)OC)=C(C)NC3=C2C(=O)c2ccccc23)cc1OCC (stereo not given)
AC50 [1]: 10 µM [falling, partial curve]

COc1cc(OC)c(NC(=O)c2nn(C)c3c2COc2ccccc2-3)cc1Cl
AC50 [1]: 39.8 µM [falling, single point]

CN1C(=O)CSc2ccc(NC(=O)N3CCN(c4ccccn4)CC3)cc21
AC50 [1]: 25.1 µM [falling, partial curve]

Cc1cccc(C(=O)Nc2nnc(S(=O)(=O)N3CCOCC3)s2)c1
AC50 [1]: 31.6 µM [falling, partial curve, poor fit]

Cc1ccc(-c2nnc(Nc3cccc(Br)c3)c3ccccc23)cc1S(=O)(=O)N1CCN(C)CC1
AC50 [1]: 7.94 µM [falling, full curve]

O=C(CSc1c2c(nc3ccc(Cl)cc13)CCCC2)N1CCN(c2ccc(Cl)cc2)CC1
AC50 [1]: 3.16 µM [falling, partial curve]

CCOc1ccc(OC(=O)c2sc3ncn(Cc4cccc(F)c4)c(=O)c3c2C)cc1
AC50 [1]: 39.8 µM [falling, single point]

CSc1ccc(CCNS(=O)(=O)c2cc(-c3cc(C)no3)ccc2C)cc1
AC50 [1]: 25.1 µM [falling, partial curve]
